Assay results: patent US8969515B2, “Pharmaceutical composition for treating hyperproliferative diseases” (OOO “MetaMax”, priority 2011, dated 2015)

Tested on: HEK293 cell line, non-synchronized and synchronized
Assay: Effect of pAntp chimeric peptide versions on cell cycle, HEK293
Type: cell-based, human
Details: 40 μM
Protocol: FIG. 22. Effect of chimeric peptide pAntp containing a p16INK4a fragment, on the cell cycle. A—non-synchronized cell line HEK293, B—cell line HEK293 synchronized in S-phase. Peptide concentration is 40 µM. The peptides are pAntp and three further peptides 1-p16, 2-p16, and 3-p16, wherein peptides 1-p16 and 2-p16 are synthetic peptides differing by the location of the 20 amino acids fragment of p16 relative to pAntp; and peptide 3-p16 is a genetically engineered peptide comprising a 50 amino acids insert of protein Antp.
We used three versions of the chimeric peptide containing p16INK4a active center and pAntp vector. These chimeric peptides differ by location of the active center relative to N-C termini of the molecule and the presence of an insertion of 44 amino acids ([…], SEQ ID NO: 9) for peptide 3 produced by genetic engineering method (Table 1).
In the study of the properties of these peptides we also investigated synchronized and nonsynchronized cell cultures. In a synchronized culture, the peptide was added at the time of sync block removal and in the nonsynchronized at a monolayer density (for adhesion cultures) of ~50%.

B1: RGSDAAREGFLDTLVVLHRAGARRQIKIWFQNRRMKWKKSERKRGRQTYTRYQTLELEKEFHFNRYLTRRRRIEIAHALCLTE (protein, listed as Homo Sapiens)
chain: RGSDAAREGFLDTLVVLHRAGARRQIKIWFQNRRMKWKKSERKRGRQTYTRYQTLELEKEFHFNRYLTRRRRIEIAHALCLTE
modifications: pANTp_p16(3), chimeric peptide
Question: Which results are given for B1?
Answer: changes of the cell cycle phases (synchronized and nonsynchronized cells): marked reduction in S-phase; anti-proliferative effect on cells (summary of HEK293 and A549 experiments): has an antiproliferative effect
